No constants are given. Whether binding was seen depends on the method and setting. Binding seen in cells or lysates may run through a third protein. Some results given as binding are weak or reduced against the parent protein; the word gives no strength. Sequences can lack the tags named with a protein.
What was measured:
[1] = target: T1, MFF1, differentially tagged (HA- or Myc-tagged construct) (human) (UniProt Q9GZY8); assay: co-immunoprecipitation with anti-Flag from PC3 cells transfected with HA-MFF1 and Flag-MFF2, Western blot
T1 sequence: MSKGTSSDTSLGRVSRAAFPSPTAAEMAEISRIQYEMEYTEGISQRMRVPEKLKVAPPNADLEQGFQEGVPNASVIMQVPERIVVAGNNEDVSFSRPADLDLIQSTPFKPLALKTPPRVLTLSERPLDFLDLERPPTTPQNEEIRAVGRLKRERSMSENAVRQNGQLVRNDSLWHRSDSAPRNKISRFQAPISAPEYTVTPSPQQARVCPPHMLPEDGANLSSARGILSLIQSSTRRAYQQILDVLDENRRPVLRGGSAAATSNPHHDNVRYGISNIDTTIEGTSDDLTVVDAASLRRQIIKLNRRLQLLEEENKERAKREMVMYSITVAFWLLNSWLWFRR

The chains behind the UniProt entries cited, without tags or fusion partners. Residues count along the entry.
UniProt P21796, residues 2-283: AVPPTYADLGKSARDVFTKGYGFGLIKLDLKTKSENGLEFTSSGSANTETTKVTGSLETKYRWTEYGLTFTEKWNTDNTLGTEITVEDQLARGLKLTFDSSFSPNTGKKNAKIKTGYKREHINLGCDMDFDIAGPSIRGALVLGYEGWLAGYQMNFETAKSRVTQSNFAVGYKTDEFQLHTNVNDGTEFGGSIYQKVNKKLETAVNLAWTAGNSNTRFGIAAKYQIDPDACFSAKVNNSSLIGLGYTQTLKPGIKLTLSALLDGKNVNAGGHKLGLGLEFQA

[2] = target: T1, MFF1, differentially tagged (HA- or Myc-tagged construct) (human); assay: co-immunoprecipitation with anti-Flag from PC3 cells transfected with Myc-MFF1 and Flag-MFF2, Western blot
[3] = target: VDAC1 (endogenous, in PC3 cell extracts) (human) (UniProt P21796); assay: as above
[4] = target: T2, hexokinase-II (HK-II), endogenous in PC3 cells (human) (UniProt P52789); assay: co-immunoprecipitation with anti-Flag from transfected PC3 cells, Western blot
T2 sequence (looked up): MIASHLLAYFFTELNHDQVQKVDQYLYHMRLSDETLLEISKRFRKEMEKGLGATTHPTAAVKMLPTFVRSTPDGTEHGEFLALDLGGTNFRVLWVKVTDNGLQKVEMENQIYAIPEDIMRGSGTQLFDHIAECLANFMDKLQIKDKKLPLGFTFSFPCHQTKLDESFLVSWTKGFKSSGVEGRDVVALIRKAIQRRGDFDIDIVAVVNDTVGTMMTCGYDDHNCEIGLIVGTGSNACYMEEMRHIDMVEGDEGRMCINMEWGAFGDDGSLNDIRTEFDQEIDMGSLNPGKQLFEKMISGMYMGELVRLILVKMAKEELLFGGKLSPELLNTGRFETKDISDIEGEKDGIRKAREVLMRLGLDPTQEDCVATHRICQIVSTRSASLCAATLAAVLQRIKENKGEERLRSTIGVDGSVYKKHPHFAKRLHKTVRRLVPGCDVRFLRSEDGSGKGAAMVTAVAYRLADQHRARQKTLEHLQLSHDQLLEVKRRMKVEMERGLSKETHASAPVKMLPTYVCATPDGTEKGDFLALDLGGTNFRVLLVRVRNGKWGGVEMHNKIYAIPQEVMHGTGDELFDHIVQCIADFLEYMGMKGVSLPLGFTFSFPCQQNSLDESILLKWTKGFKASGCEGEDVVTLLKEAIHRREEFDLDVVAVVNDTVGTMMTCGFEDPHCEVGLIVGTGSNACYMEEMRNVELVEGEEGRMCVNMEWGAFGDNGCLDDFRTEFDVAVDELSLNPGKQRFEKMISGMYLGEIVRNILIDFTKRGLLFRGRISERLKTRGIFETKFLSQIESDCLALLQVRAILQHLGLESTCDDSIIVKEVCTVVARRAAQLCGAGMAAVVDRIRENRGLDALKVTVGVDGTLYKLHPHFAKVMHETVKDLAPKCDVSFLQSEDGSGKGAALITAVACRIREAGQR

[5] = target: VDAC1 (endogenous, in PC3 cell extracts) (human) (UniProt P21796); assay: as above
[6] = target: T2, hexokinase-II (HK-II), endogenous in PC3 cells (human); assay: co-immunoprecipitation with anti-Flag from PC3 cells, Western blot
[7] = target: VDAC1 (endogenous, in PC3 cell extracts) (human) (UniProt P21796); assay: as above
[8] = target: VDAC1 (endogenous, in PC3 cell extracts) (human) (UniProt P21796); assay: co-immunoprecipitation, Western blot
[9] = target: T1, MFF1, differentially tagged (HA- or Myc-tagged construct) (human); assay: co-immunoprecipitation with anti-Flag from PC3 cells transfected with HA-MFF1 and Flag-MFF4, Western blot
[10] = target: VDAC1 (endogenous, in PC3 cell extracts) (human) (UniProt P21796); assay: as above
[11] = target: T1, MFF1, differentially tagged (HA- or Myc-tagged construct) (human); assay: co-immunoprecipitation with anti-Flag from PC3 cells transfected with Myc-MFF1 and Flag-MFF4, Western blot
[12] = target: VDAC1 (endogenous, in PC3 cell extracts) (human) (UniProt P21796); assay: as above

Measured: binding

B1: Flag-MFF2 (protein, human, UniProt Q9GZY8-2 1-291, looked up, not shown: small tags and cut ends)
chain: MAEISRIQYEMEYTEGISQRMRVPEKLKVAPPNADLEQGFQEGVPNASVIMQVPERIVVAGNNEDVSFSRPADLDLIQSTPFKPLALKTPPRVLTLSERPLDFLDLERPPTTPQNEEIRAVGRLKRERSMSENAVRQNGQLVRNDSLVTPSPQQARVCPPHMLPEDGANLSSARGILSLIQSSTRRAYQQILDVLDENRRPVLRGGSAAATSNPHHDNVRYGISNIDTTIEGTSDDLTVVDAASLRRQIIKLNRRLQLLEEENKERAKREMVMYSITVAFWLLNSWLWFRR
not listed: [9] | [10] | [11] | [12]
binds: all other assays above

B2: MFF4, differentially tagged (HA-, Myc- or Flag-tagged construct) (protein, human, UniProt Q9GZY8-4 1-218, looked up, not shown: small tags and cut ends)
chain: MAEISRIQYEMEYTEGISQRMRVPEKLKVAPPNADLEQGFQEGVPNASVIMQVPERIVVAGNNEDVSFSRPADLDLIQSTPFKPLALKTPPRVLTLSERPLDFLDLERPPTTPQNEEIRAVGRLKRERSMSENAVRQNGQLVRNDSLYGISNIDTTIEGTSDDLTVVDAASLRRQIIKLNRRLQLLEEENKERAKREMVMYSITVAFWLLNSWLWFRR
binds: [9] | [10] | [11] | [12]
